The test addresses KEAP1FL (full-length, untagged KEAP1, residues 1–624), unlabeled (human) (UniProt Q14145). The test is described as follows: FRET or BRET; KEAP1FL dimerization TR-FRET assay with a mixture of CoraFluor-1- and FITC-labeled Nrf2-derived peptides (…-CONH2); KLHL11_(BTB-BACK) titrated up to 25 μM; both purified.

The chains behind the UniProt entries cited, without tags or fusion partners.
UniProt Q14145: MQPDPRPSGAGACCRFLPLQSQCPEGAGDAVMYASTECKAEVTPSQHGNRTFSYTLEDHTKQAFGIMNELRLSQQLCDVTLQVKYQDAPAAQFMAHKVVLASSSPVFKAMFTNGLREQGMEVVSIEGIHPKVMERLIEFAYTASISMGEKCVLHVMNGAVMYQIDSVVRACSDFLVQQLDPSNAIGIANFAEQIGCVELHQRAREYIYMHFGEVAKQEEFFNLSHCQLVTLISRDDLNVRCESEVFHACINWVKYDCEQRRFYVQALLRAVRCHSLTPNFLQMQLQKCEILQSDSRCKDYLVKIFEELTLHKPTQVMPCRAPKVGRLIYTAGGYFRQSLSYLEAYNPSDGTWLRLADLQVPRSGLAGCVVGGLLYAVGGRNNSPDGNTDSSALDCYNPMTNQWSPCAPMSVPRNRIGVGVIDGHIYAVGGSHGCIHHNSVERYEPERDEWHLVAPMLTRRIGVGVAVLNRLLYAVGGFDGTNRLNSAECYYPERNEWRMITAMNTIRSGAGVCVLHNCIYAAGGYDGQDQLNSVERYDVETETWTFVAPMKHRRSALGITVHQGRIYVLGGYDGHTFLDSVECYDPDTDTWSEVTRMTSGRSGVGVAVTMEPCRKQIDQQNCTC

Results are given in words; binding and its absence hold for the method and conditions named.

The results in this text go back to PMC10564622.

B1: KLHL11_(BTB-BACK) (human KLHL11 residues 67–340) (domain or fragment, UniProt Q9NVR0 67-340)
chain: EAEDFECSSHCSELSWRQNEQRRQGLFCDITLCFGGAGGREFRAHRSVLAAATEYFTPLLSGQFSESRSGRVEMRKWSSEPGPEPDTVEAVIEYMYTGRIRVSTGSVHEVLELADRFLLIRLKEFCGEFLKKKLHLSNCVAIHSLAHMYTLSQLALKAADMIRRNFHKVIQDEEFYTLPFHLIRDWLSDLEITVDSEEVLFETVLKWVQRNAEERERYFEELFKLLRLSQMKPTYLTRHVKPERLVANNEVCVKLVADAVERHALRAENIQSGT
B1: the binding result is given as “no binding (tested: 25 μM)”.
